Laboratory results published in patent US11186594B2, “Podophyllotoxin derivatives and their use” (California Pacific Medical Center, priority 2015, dated 2021).
At least one compound was matched to its structure with a doubt left. Some results were stated once for a whole list of compounds, not compound by compound.

Experiments:
[1] = system: HCT116 human colon cancer xenograft; experiment: Subcutaneous HCT116 human colon cancer xenograft model; assay type: in vivo, Mus Musculus (BALB/c nude); conditions: during the treatment period, doses of the study groups
Procedure: Each mouse was inoculated subcutaneously with 5×10^6 HCT116 tumor cells in 0.1 ml PBS for tumor development. Treatments were started when the tumor volume reached 100 mm^3. […] Body weight and tumor volume were measured twice a week.

[2] = system: K562 human chronic myeloid leukemia xenograft; experiment: Subcutaneous K562 human chronic myeloid leukemia xenograft model; conditions: 300 mg/kg ip Days 8, 11, 14; complete remission by Day 21

**Q.** For `CC[C@@]1(OC(=O)COc2ccc(C(=O)O[C@H]3c4cc5c(cc4[C@@H](c4cc(OC)c(OC)c(OC)c4)[C@H]4C(=O)OC[C@@H]43)OCO5)cc2)C(=O)OCc2c1cc1n(c2=O)Cc2cc3cc(OC(=O)N4CCC(N5CCCCC5)CC4)ccc3nc2-1.Cl` [Compound 801-HCl], which body weight loss [1] is on record?
**A.** 4-6%

**Q.** What about the “CR ratio (ratio of complete regression)” value [2] of the same compound?
**A.** 3 out 8
